Experimental data as given in US20170209483A1, “ANTIBIOTIC ACTIVITY OF IRON SEQUESTERING POLYMERS” (UNIVERSITY OF KANSAS, priority 2014, published 2017).
Where two headings read alike, the source gives them in different places. For at least one compound, name, drawing or mass did not settle the structure.

Test system: B. pseudomallei MSHR305
Type: cell-based
Conditions: 0-72 h

NC[C@H]1O[C@H](O[C@H]2[C@H](O)[C@@H](O[C@H]3O[C@H](CO)[C@@H](O)[C@H](N)[C@H]3O)[C@H](N)C[C@@H]2N)[C@H](O)[C@@H](O)[C@@H]1O [kanamycin]
Inhibition of bacterial growth, single agent (absorbance 650 nm) (1-500 μg/mL, higher concentrations): effective separately to inhibit bacterial growth at higher concentrations
Inhibition of bacterial growth, single agent (absorbance 650 nm) (lowest concentrations of 1-500 μg/mL): not effective in inhibiting bacterial growth
